PubChem BioAssay AID652243 | Drosophila RNAi Screening Center, 2013
Test: 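Knock-downs that decrease or increase androgen receptor reporter signal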 (primary screen). Cell system: Drosophila S2R+ cells. Reagent: long dsRNA against Drosophila genes. Timing: 72 h (48 h, then 24 h hormone). Challenge: synthetic androgen R1881 at 10 nM for 24 h. Read-out: 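Firefly light from an androgen-responsive reporter and Renilla control light per well, raw and unnormalised, for each of two replicates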. Scale: firefly reporter light: higher = more light from androgen-responsive reporter; Renilla control light: higher = more constitutive control signal (cell number, transfection). Active means: 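Hit when the log firefly-to-Renilla ratio dropped or increased by a fixed fold versus the mean of GFP or LacZ controls across duplicate plates; lowering cut given as 1.5 and as 3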. Calls: active = hit: reporter lowered or raised; inactive = no hit.
In all, the deposit lists about 24,000 reagents; shown is a random part of those that have a named target and a result. Over the whole deposit, 246 (1%) were called active. 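Plates not normalised; calls are printed but the firefly/Renilla ratio behind them is not deposited; fold cut for lowering reported inconsistently.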 The raw values are shown without normalisation. Reagent sequences are not shown. The record does not give: the amount of reagent.

pigeon [DRSC03565]
- firefly reporter light, replicate 1: 1.12e6
- firefly reporter light, replicate 2: 8.22e5
- Renilla control light, replicate 1: 6.23e5
- Renilla control light, replicate 2: 1.13e6
- activity call: inactive

TwdlX [DRSC19151]
- firefly reporter light, replicate 1: 4.19e5
- firefly reporter light, replicate 2: 3.69e5
- Renilla control light, replicate 1: 6.09e5
- Renilla control light, replicate 2: 4.69e5
- activity call: inactive

TwdlX [DRSC29528]
- firefly reporter light, replicate 1: 2.92e5
- firefly reporter light, replicate 2: 4.26e5
- Renilla control light, replicate 1: 4.83e5
- Renilla control light, replicate 2: 4.83e5
- activity call: inactive

CG18748 [DRSC15385]
- firefly reporter light, replicate 1: 64061
- firefly reporter light, replicate 2: 1.66e5
- Renilla control light, replicate 1: 1.61e6
- Renilla control light, replicate 2: 2.30e6
- activity call: inactive

CG2975 [DRSC37907]
- firefly reporter light, replicate 1: 5.28e5
- firefly reporter light, replicate 2: 4.43e5
- Renilla control light, replicate 1: 1.48e6
- Renilla control light, replicate 2: 1.34e6
- activity call: inactive

Cyt-c-d [DRSC03309]
- firefly reporter light, replicate 1: 1.32e5
- firefly reporter light, replicate 2: 1.78e5
- Renilla control light, replicate 1: 1.97e6
- Renilla control light, replicate 2: 2.20e6
- activity call: inactive

Cyt-c-d [DRSC30051]
- firefly reporter light, replicate 1: 1.38e6
- firefly reporter light, replicate 2: 7.98e5
- Renilla control light, replicate 1: 1.32e6
- Renilla control light, replicate 2: 7.06e5
- activity call: inactive

Lcp1Psi [DRSC05105]
- firefly reporter light, replicate 1: 63470
- firefly reporter light, replicate 2: 95004
- Renilla control light, replicate 1: 65067
- Renilla control light, replicate 2: 1.05e5
- activity call: inactive

Lcp1Psi [DRSC28465]
- firefly reporter light, replicate 1: 2.61e5
- firefly reporter light, replicate 2: 5.19e5
- Renilla control light, replicate 1: 6.20e5
- Renilla control light, replicate 2: 1.34e6
- activity call: inactive

IntS14 [DRSC00668]
- firefly reporter light, replicate 1: 6.34e5
- firefly reporter light, replicate 2: 6.38e5
- Renilla control light, replicate 1: 2.67e6
- Renilla control light, replicate 2: 2.19e6
- activity call: inactive

CG7848 [DRSC07050]
- firefly reporter light, replicate 1: 73517
- firefly reporter light, replicate 2: 38636
- Renilla control light, replicate 1: 1.05e6
- Renilla control light, replicate 2: 1.05e6
- activity call: inactive

Strump [DRSC09872]
- firefly reporter light, replicate 1: 1.38e5
- firefly reporter light, replicate 2: 1.25e5
- Renilla control light, replicate 1: 1.21e6
- Renilla control light, replicate 2: 1.22e6
- activity call: inactive

CG14354 [DRSC14817]
- firefly reporter light, replicate 1: 1.11e5
- firefly reporter light, replicate 2: 1.31e5
- Renilla control light, replicate 1: 1.91e6
- Renilla control light, replicate 2: 1.66e6
- activity call: inactive

CG6262 [DRSC23105]
- firefly reporter light, replicate 1: 8.74e5
- firefly reporter light, replicate 2: 8.87e5
- Renilla control light, replicate 1: 1.88e6
- Renilla control light, replicate 2: 1.97e6
- activity call: inactive

CG6262 [DRSC27998]
- firefly reporter light, replicate 1: 5.63e5
- firefly reporter light, replicate 2: 5.94e5
- Renilla control light, replicate 1: 1.40e6
- Renilla control light, replicate 2: 1.17e6
- activity call: inactive

Entries above whose target name starts with T or t (2):
TwdlX [DRSC19151]
- firefly reporter light, replicate 1: 4.19e5
- firefly reporter light, replicate 2: 3.69e5
- Renilla control light, replicate 1: 6.09e5
- Renilla control light, replicate 2: 4.69e5
- activity call: inactive

TwdlX [DRSC29528]
- firefly reporter light, replicate 1: 2.92e5
- firefly reporter light, replicate 2: 4.26e5
- Renilla control light, replicate 1: 4.83e5
- Renilla control light, replicate 2: 4.83e5
- activity call: inactive
